Data published in US20060160905A1, “Compositions and methods for inhibiting pain” (priority 2005, published 2006).

System: acetic acid-induced visceral pain
Experiment: acetic acid-induced visceral pain mouse model (writhing/stretch count)
Assay type: in vivo, mice (male Harlan ICR)
Details: for number of stretches (writhes) per 30 minutes: 0.75% acetic acid IP half an hour later, control mice typically stretch 65-70 times/30 minutes
Protocol: The acetic acid-induced visceral pain mouse model test is, of course, well known to those skilled in the art and is described in the seminal paper by Collier et al [Collier, H. O. J., L. C. Dinneen, C. A. Johnson and C. Schneider 1968. The abdominal constriction response and its suppression by analgesic drugs in the mouse.
The drugs are identified below as Monoamine #1-6. Five groups of five mice (male Harlan ICR, weight 35-50 g) were used to test each of the drugs. Control animals were tested as part of each experiment as well. The mice in each group were weighed and identified with a tail marking and were given a single dose of one of the drugs at 1 ml/100 g SC. The first group served as controls and was given only saline; the other five groups were given a drug at five doses ranging from 0.37 mg/kg up to 30.0 mg/kg. After the drug was administered, the mice were allowed to acclimate for one-half hour and were then given an IP injection of 0.75% Glacial acetic acid at a volume of 1 ml/100 g. Once the acid was injected, the mice were put into individual clear containers for observation. The mice were then watched continuously for one-half hour and the number of “stretches” or writhes were counted. The animal was considered to be stretching when its front legs stepped forward and at least one hind leg was extended out behind them. At the end of the thirty-minute observational period the mice were sacrificed with CO2. The same procedure was followed for all of the different compounds examined.

CN1CC[C@]23c4c5ccc(O)c4O[C@H]2[C@@H](O)C=C[C@H]3[C@H]1C5 [morphine, reference compound]
number of stretches (writhes) per 30 minutes (10 mg/kg SC single dose): 0 stretches/30 minutes | number of stretches (writhes) per 30 minutes (30 mg/kg SC single dose): 0 stretches/30 minutes | effect on inhibiting visceral pain (stretches vs. control mice), in words (doses from 0.37 mg/kg to 30.0 mg/kg SC): effective at all of the doses tested
